Measured values: paper PMC6748091
Results are given in words; binding and its absence hold for the method and conditions named. In cells and extracts the contact can be indirect. Some binding calls cover weakened binding; strength is not graded here. Sequences can lack the tags named with a protein.

Molecular target: T1, the C-terminal of ITGB4 (ITGB4 1356–1756), HA-tagged (UniProt P16144)
T1 sequence: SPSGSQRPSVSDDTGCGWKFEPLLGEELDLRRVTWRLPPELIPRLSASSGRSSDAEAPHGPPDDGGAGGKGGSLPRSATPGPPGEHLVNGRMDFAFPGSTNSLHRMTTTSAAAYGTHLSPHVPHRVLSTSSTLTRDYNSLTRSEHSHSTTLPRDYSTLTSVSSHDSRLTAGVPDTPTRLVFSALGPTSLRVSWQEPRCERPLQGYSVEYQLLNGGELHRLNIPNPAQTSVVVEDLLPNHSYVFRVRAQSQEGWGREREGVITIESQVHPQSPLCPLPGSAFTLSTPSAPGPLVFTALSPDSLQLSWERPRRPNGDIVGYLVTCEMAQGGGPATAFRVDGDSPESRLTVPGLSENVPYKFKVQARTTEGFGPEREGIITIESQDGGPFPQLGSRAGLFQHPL
Assay: co-IP; 293T cells cotransfected with FLAG-TMEM268 and HA-tagged ITGB4 fragments for 24 h; IP with an anti-HA antibody; ITGB4 mutants and FLAG-TMEM268 detected by western blotting

## FLAG-TMEM268 (in 293T cells) (from UniProt Q5VZI3 1-342)
  binding: binds
